Test results from article PMC4409337, “Immucillins Impair Leishmania (L.) infantum chagasi and Leishmania (L.) amazonensis Multiplication In Vitro” (PLoS ONE, 2015).

Tested on: Nucleoside hydrolase NH36 of L. (L.) donovani
Assay type: biochemical, Leishmania (L.) donovani
Conditions: for fold increased catalytic rate of NH36 versus NH of Cui et al.: NH36 kcat compared to ref 29 kcat
Experimental: BL21DE3 E.coli were transformed with the synthetic plasmid pET 28b encoding the gene of NH36 of Leishmania (L.) donovani (EMBL, Genbank and DDJB data bases, access number AY007193) with a His6tag at the C-terminal. Expression was induced with 0.5 mM IPTG and overnight incubation at 20°C. Purification of NH36 was performed on a column of Ni-NTA Superflow resin (Qiagen, USA) eluted by a stepwise imidazole gradient and monitored by SDS-polyacrylamide gel electrophoresis and protein assay. The extinction coefficient of NH36 is 21.437 mM^-1 cm^-1 at 280 nm, as calculated with the ProtParam program from ExPASy, and was used to estimate protein concentration (http://ca.expasy.org/seqanalref/). The yield of NH36 after purification was 11.87 mg per Liter of bacterial growth culture. Non-specific His-proteins with weak interactions were eluted with 50–100 mM imidazole (S1 Fig). The purified NH36 started to elute with 150 mM imidazole. We used 250 mM of imidazol in elution buffer for purification of NH36.
Steady-state kinetic rates for NH36 were determined on the substrates inosine, guanosine, adenosine, uridine and cytidine. Hypoxanthine and adenine formation were coupled to xanthine oxidase (12.9 mM^-1 cm^-1 at 293 nm and 15.2 mM^-1 cm^-1 at 305 nm, respectively), and the others were followed by direct uv absorbance changes resulting from cleavage of the N-ribosidic bond. Reaction mixtures contained 50 mM Hepes (pH 7.4), 100 mM NaCl and 5 mM of DTT. One unit, and 0.1 unit of xanthine oxidase (XOD) were used as the coupling enzyme to the adenosine and inosine assays, respectively. Spectral changes for hydrolysis of guanosine, uridine and cytidine were 5.4 mM^-1 cm^-1 at 257 nm,1.8 mM^-1 cm^-1 at 280 nm and 1.8 mM^-1 cm^-1 at 288 nm, respectively. Variable concentrations of substrate and appropriate amounts of purified NH36 were added in all assays. The hydrolysis of nucleosides to bases and ribose was followed by continuous recording of optical absorbance after addition of the enzyme, in a CARY 300 UV-visible spectrophotometer. Control rates with no enzyme addition were subtracted from initial rates. Reactions with substrates were conducted at 25°C using 1 cm path length cuvettes containing 1 mL reaction volumes. Kinetic parameters of NH36 were obtained by fitting initial rates to the Michaelis−Menten equation using GraFit 5 (Erithacus Software).

[1] = NH36 kcat compared to ref 13 kcat

Structure (SMILES) | fold increased catalytic rate of NH36 versus NH of Cui et al. [fold] | fold decreased catalytic turnover of NH36 versus NH of L. (L.) major [1] [fold] | fold increased catalytic rate of NH36 versus NH of L. (L.) major [1] [fold]
O=c1ccn([C@@H]2O[C@H](CO)[C@@H](O)[C@H]2O)c(=O)[nH]1 [Uridine] | 3.6 |  | 
O=c1[nH]cnc2c1ncn2[C@@H]1O[C@H](CO)[C@@H](O)[C@H]1O [Inosine] | 1.4 | 11 | 
Nc1ncnc2c1ncn2[C@@H]1O[C@H](CO)[C@@H](O)[C@H]1O [Adenosine] |  |  | 6
Nc1ccn([C@@H]2O[C@H](CO)[C@@H](O)[C@H]2O)c(=O)n1 [Cytidine] |  |  | 36
